Drawing on article PMC8294330, this text covers binding for one molecule.

By UniProt entry, the sequences of proteins in these tests, tags left out.
UniProt P0A6X3: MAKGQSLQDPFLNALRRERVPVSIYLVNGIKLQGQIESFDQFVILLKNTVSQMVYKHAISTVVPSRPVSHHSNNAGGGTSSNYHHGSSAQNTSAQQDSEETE

These are yes or no findings as the source states them, for the method shown.

The target in this assay is Escherichia coli RNA chaperone Hfq (Escherichia coli) (UniProt P0A6X3). Nature of the assay: condition: 400 nM RNA, 400 nM Hfq hexamer, 1:1 and 1:3 RNA:PNPase trimer molar ratio; native gel or EMSA; 400 nM RNA (RyhB, 3'ETSleuZ or CyaR) with or without 400 nM Hfq hexamer, PNPase at 1:1 and 1:3 RNA:PNPase trimer; 20 mM Tris pH 7.5, 100 mM NaCl, 1 mM MgCl2, 1 mM DTT, 30°C 20 min; gel in tris-glycine pH 8.5; both purified.

B1: PNPase S1x4 (PNPase R681A, Q682A, R684A, R686A) (enzyme, UniProt P05055 1-711)
chain: MLNPIVRKFQYGQHTVTLETGMMARQATAAVMVSMDDTAVFVTVVGQKKAKPGQDFFPLTVNYQERTYAAGRIPGSFFRREGRPSEGETLIARLIDRPIRPLFPEGFVNEVQVIATVVSVNPQVNPDIVAMIGASAALSLSGIPFNGPIGAARVGYINDQYVLNPTQDELKESKLDLVVAGTEAAVLMVESEAQLLSEDQMLGAVVFGHEQQQVVIQNINELVKEAGKPRWDWQPEPVNEALNARVAALAEARLSDAYRITDKQERYAQVDVIKSETIATLLAEDETLDENELGEILHAIEKNVVRSRVLAGEPRIDGREKDMIRGLDVRTGVLPRTHGSALFTRGETQALVTATLGTARDAQVLDELMGERTDTFLFHYNFPPYSVGETGMVGSPKRREIGHGRLAKRGVLAVMPDMDKFPYTVRVVSEITESNGSSSMASVCGASLALMDAGVPIKAAVAGIAMGLVKEGDNYVVLSDILGDEDHLGDMDFKVAGSRDGISALQMDIKIEGITKEIMQVALNQAKGARLHILGVMEQAINAPRGDISEFAPRIHTIKINPDKIKDVIGKGGSVIRALTEETGTTIEIEDDGTVKIAATDGEKAKHAIRRIEEITAEIEVGRVYTGKVTRIVDFGAFVAIGGGKEGLVHISQIADKRVEKVTDYLQMGQEVPVKVLEVDAAGAIALSIKEATEQSQPAAAPEAPAAEQGE
On to B1, for which the binding entry is listed as “no binding”.
